The results in this text go back to US5128447A (A. Menarini Industrie Farmaceutiche Riunite S.r.l., priority 1989, dated 1992).

The nature of the data set: solid-phase peptide synthesis. Particulars: whole synthesis, UV 210 nm, scale of the general procedure 2.0 g MBHA resin, 1.0 g Fmoc amide resin.

Strings that start with PEPTIDE1 are HELM notation: dots part the residues, brackets hold end groups and non-standard residues.

As to “PEPTIDE1{R.D.Y.[dW].V.[dW].[dW].R.[am]}$$$$V2.0”, the “final HPLC purity” value turned out to be 98.0%.
The same measure for “PEPTIDE1{D.Y.[dW].V.[dW].[dW].[dW].[am]}$$$$V2.0”: 98%.
